Reference: PMC11810782
No constants are given. Whether binding was seen depends on the method and setting. In cells and extracts the contact can be indirect. Some binding calls cover weakened binding; strength is not graded here.

By UniProt entry, the sequences of proteins in these tests, tags left out.
UniProt P08247: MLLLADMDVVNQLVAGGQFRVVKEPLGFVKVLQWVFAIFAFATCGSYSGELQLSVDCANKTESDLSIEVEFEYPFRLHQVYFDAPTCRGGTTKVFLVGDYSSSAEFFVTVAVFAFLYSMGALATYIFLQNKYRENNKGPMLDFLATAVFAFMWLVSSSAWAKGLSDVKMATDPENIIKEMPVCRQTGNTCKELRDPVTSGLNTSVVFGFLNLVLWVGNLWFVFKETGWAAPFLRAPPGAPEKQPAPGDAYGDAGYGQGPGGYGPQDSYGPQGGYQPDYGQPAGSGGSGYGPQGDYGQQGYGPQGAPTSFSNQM
UniProt P63027: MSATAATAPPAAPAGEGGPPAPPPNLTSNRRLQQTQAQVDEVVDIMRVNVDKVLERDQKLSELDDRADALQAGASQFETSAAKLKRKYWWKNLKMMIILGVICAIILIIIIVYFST

Molecular target: Flag-tagged synaptophysin (Syp-1xFLAG) (UniProt P08247)
Assay: co-IP; Syp-1xFLAG and Strep-VAMP2 co-expressed; membrane fraction solubilised with 1.5% ChloroSMA80 into native nanodiscs at 4 °C; discs purified on anti-FLAG beads at 4 °C, eluted with 3x FLAG peptide; Coomassie gel and western blots of the eluate

binding: binds
Substance: Strep-tagged VAMP2 (from UniProt P63027 1-116)
